Measurements reported in PubChem BioAssay AID504808 (Drosophila RNAi Screening Center, 2011).
The screen tested about 21,000 reagents; this is a random part of those with a known target gene and a result. Of all reagents, 18 (0.084%) are marked active. 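Raw counts without plate normalisation, one of two replicates; the ratio scores behind the calls were not deposited.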 The record does not give: the amount of reagent, the time to read-out.

Screen: 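Chromatin factors that keep E2F targets switched off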 (primary screen)
Cells: Drosophila S2 cells
Knock-down reagent: long dsRNA against Drosophila genes
Read-out: 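Dual luciferase plate measurements; E2F-specific signal taken as firefly over Renilla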
Reading the numbers: E2F firefly: higher = more E2F reporter activity; Renilla normaliser: higher = more normaliser reporter signal
Active means: 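a knock-down counted as active when the firefly/Renilla E2F signal rose above 50%, a threshold chosen arbitrarily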

tsg (twisted gastrulation) [DRSC20380] → E2F firefly, rep 1 = 89567; Renilla normaliser, rep 1 = 5559; activity call = inactive
IscU (Iron-sulfur cluster assembly enzyme) [DRSC16572] → E2F firefly, rep 1 = 1.31e5; Renilla normaliser, rep 1 = 7890; activity call = inactive
GstE3 (Glutathione S transferase E3) [DRSC06673] → E2F firefly, rep 1 = 1.34e5; Renilla normaliser, rep 1 = 5248; activity call = inactive
CG18223 [DRSC10306] → E2F firefly, rep 1 = 1.25e5; Renilla normaliser, rep 1 = 6125; activity call = inactive
CG7565 [DRSC10881] → E2F firefly, rep 1 = 86110; Renilla normaliser, rep 1 = 3984; activity call = inactive
CG31921 [DRSC00013] → E2F firefly, rep 1 = 1.32e5; Renilla normaliser, rep 1 = 5432; activity call = inactive
St3 (Sulfotransferase 3) [DRSC04505] → E2F firefly, rep 1 = 81124; Renilla normaliser, rep 1 = 3590; activity call = inactive
CG15784 [DRSC18090] → E2F firefly, rep 1 = 1.12e5; Renilla normaliser, rep 1 = 8092; activity call = inactive
Ras64B (Ras oncogene at 64B) [DRSC08689] → E2F firefly, rep 1 = 1.08e5; Renilla normaliser, rep 1 = 4229; activity call = inactive
CG10510 [DRSC11614] → E2F firefly, rep 1 = 77325; Renilla normaliser, rep 1 = 3638; activity call = inactive
Trf2 (TATA box binding protein-related factor 2) [DRSC18727] → E2F firefly, rep 1 = 1.27e5; Renilla normaliser, rep 1 = 7392; activity call = inactive
cnk (connector enhancer of ksr) [DRSC07595] → E2F firefly, rep 1 = 1.51e5; Renilla normaliser, rep 1 = 5050; activity call = inactive
Asph (Aspartyl beta-hydroxylase) [DRSC06783] → E2F firefly, rep 1 = 1.26e5; Renilla normaliser, rep 1 = 4365; activity call = inactive
Asph (Aspartyl beta-hydroxylase) [DRSC07171] → E2F firefly, rep 1 = 75158; Renilla normaliser, rep 1 = 3627; activity call = inactive
CG14995 [DRSC08452] → E2F firefly, rep 1 = 59631; Renilla normaliser, rep 1 = 2969; activity call = inactive
Ada3 (transcriptional Adaptor 3) [DRSC20321] → E2F firefly, rep 1 = 1.49e5; Renilla normaliser, rep 1 = 7221; activity call = inactive
Ada3 (transcriptional Adaptor 3) [DRSC20322] → E2F firefly, rep 1 = 1.71e5; Renilla normaliser, rep 1 = 7030; activity call = inactive
CG42336 [DRSC05273] → E2F firefly, rep 1 = 1.25e5; Renilla normaliser, rep 1 = 5205; activity call = inactive
CG42336 [DRSC06332] → E2F firefly, rep 1 = 1.04e5; Renilla normaliser, rep 1 = 4079; activity call = inactive
CG42336 [DRSC06333] → E2F firefly, rep 1 = 1.09e5; Renilla normaliser, rep 1 = 4192; activity call = inactive
CG13185 [DRSC06310] → E2F firefly, rep 1 = 3332; Renilla normaliser, rep 1 = 197; activity call = inactive
slmb (supernumerary limbs) [DRSC17056] → E2F firefly, rep 1 = 76016; Renilla normaliser, rep 1 = 4965; activity call = inactive
pea (peanuts) [DRSC07120] → E2F firefly, rep 1 = 2269; Renilla normaliser, rep 1 = 234; activity call = inactive
RpS14a (Ribosomal protein S14a) [DRSC18710] → E2F firefly, rep 1 = 53986; Renilla normaliser, rep 1 = 5375; activity call = inactive
CG2736 [DRSC04314] → E2F firefly, rep 1 = 75476; Renilla normaliser, rep 1 = 2785; activity call = inactive
Tre1 (Trapped in endoderm 1) [DRSC18726] → E2F firefly, rep 1 = 90106; Renilla normaliser, rep 1 = 6283; activity call = inactive
CG2291 [DRSC06836] → E2F firefly, rep 1 = 1.65e5; Renilla normaliser, rep 1 = 5066; activity call = inactive
Ripalpha (RPA-interacting protein alpha) [DRSC02657] → E2F firefly, rep 1 = 1.49e5; Renilla normaliser, rep 1 = 5073; activity call = inactive
